The inconclusive results got no clear call from the source; some entries with a clear call stand among them for comparison. A potency beside an inconclusive call is a rough fit, not a confirmed value. Activity calls are given as the source filed them. The call rests on the fitted dose curve; in most records, active means well fitted activation curve with a large enough effect; inconclusive means small, poorly fitted or top-dose-only effect; inactive means flat fitted curve, though single readings scatter. Square brackets hold non-standard residues; d marks the D form. Peptide text beside a SMILES is read from it. ξ: configuration not given here. ξLac(3-iPr) = CC(C)CC(O)C(=O)O; NMeV = CN[CH](C(=O)O)C(C)C; NMeA = CN[CH](C)C(=O)O; βAla = NCCC(=O)O
Assay: qHTS for Inhibitors of Cell Surface uPA Generation: Confirmatory Assay for Cherry-picked Compounds
Settings: cell surface uPA activity generation, qHTS confirmation
Source text: The overall objective of this project is to perform a quantitative high throughput screen (qHTS) to identify novel compounds that inhibit the generation of cell surface urokinase activity. The urokinase plasminogen activator (uPA) is one of the two primary endogenous systems that mediate plasminogen activation into plasmin. Members of this system, including uPA and its receptor (uPAR), are overexpressed in several malignant tumors. This system plays a major role in adhesion, migration, invasion and metastasis of cancer cells. Small molecule inhibitors of the uPA system will serve as probes to understand the molecular mechanisms of the uPA cascade and better understanding the micro-environmental circumstances that facilitate the activation of plasminogen by uPA, and finally may provide novel candidate agents for anticancer drug therapy.
[…] Activation of cell viability (increase in luminescence signal) due to inhibition of the cell surface uPA generation is the desired outcome of this assay. […]
Cultured RAW 264.7 were dispensed into 1536-well clear bottom, white walled tissue culture plates at a density of 4000 cells/well and were incubated overnight (12-16 h) at 37 C in a 5% CO2 incubator. […] Three microliter of PerkinElmer ATPlite was then added to each well and luminescence was detected using the PerkinElmer ViewLux plate reader for a 5 sec exposure.
Potency means the concentration at half of the fitted maximal effect.

SMILES | Potency
C=C1C(=O)O[C@@H]2C[C@@H](C)[C@@H]3C4OC4C(=O)[C@@]3(C)[C@@H](O)[C@H]12 (some centres not stated) | inconclusive: 23.3 µM [activator, single point]
CCC(C)C1NC(=O)C2CCCN2C(=O)C(CC(C)C)OC(=O)CCNC(=O)C(C)N(C)C(=O)C(C(C)C)N(C)C1=O (configuration not stated) (cyclo([ξLac(3-iPr)]PI[NMeV][NMeA][βAla]); configuration not given here) | active: 3.69 µM
